Compound in this assay: Cc1cc(ccc1-c1ccccc1)C(=O)N1CCCN(CC1)C(=O)CCl [compound 10]
Description: probe-labelled cysteine peptide fold change vs DMSO (competition) (log2 fold change); higher = less target engagement (more negative = stronger competition). The following applies: THP-1, incubation time: 4 h.

This is one part of the list.
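Further: competitive profiling in live THP-1 cells: cysteine peptides tagged with an iodoacetamide desthiobiotin (IA-DTB) probe, intensity after compound treatment relative to DMSO-treated cells.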

For “CROT_Q9UKG9_166_MLFSTCK (UniProt Q9UKG9)”, the “probe-labelled cysteine peptide fold change” value by setting is: (10 µM) -0.0518; (50 µM) -0.0687.

Take “CPSF1_Q10570_1178_GPVTALCHCNGHLVSAIGQK (UniProt Q10570)”: the “probe-labelled cysteine peptide fold change” value reads like this: (10 µM) -0.124; (50 µM) -0.143.

For “CRBN_Q96SW2_234_FHCANLTSWPR (UniProt Q96SW2)”, the “probe-labelled cysteine peptide fold change” value by setting is: (10 µM) -0.0246; (50 µM) -0.0309.

Turning to “CORO7_P57737_790_TECDVR (UniProt P57737)”, the “probe-labelled cysteine peptide fold change” value by setting is: (10 µM) -0.0936; (50 µM) -0.139.

Consider “CORO7_P57737_363_KAVEFHEDLFPDTAGCVPATDPHSWWAGDNQQVQK (UniProt P57737)”, for which the “probe-labelled cysteine peptide fold change” value is, setting by setting: (10 µM) -0.379; (50 µM) -0.663.

For “CPVL_Q9H3G5_271_QCHECIEHIR (UniProt Q9H3G5)”, the “probe-labelled cysteine peptide fold change” value (10 µM) was found to be 0.223 and the “probe-labelled cysteine peptide fold change” value (50 µM) was 0.3.

On to “CRYBG1_Q9Y4K1_594+609_EVQLPTCHSNEPEVVSVASCAPPQEEVLGNEHSHCTAELAAK (UniProt Q9Y4K1)”, for which the “probe-labelled cysteine peptide fold change” value was -0.278 (10 µM) and -0.546 (50 µM).

Consider “CORO1A_P31146_40_VSQTTWDSGFCAVNPK (UniProt P31146)”, for which the “probe-labelled cysteine peptide fold change” value is -0.0511 (10 µM) and -0.00847 (50 µM).

For the target “CTIF_O43310_556_MLCPSESMLTR (UniProt O43310)”, the “probe-labelled cysteine peptide fold change” value reads like this: (10 µM) -0.353; (50 µM) -0.427.

As for “CRACR2A_Q9BSW2_29_GSGACLHPLDSLEQK (UniProt Q9BSW2)”, the “probe-labelled cysteine peptide fold change” value (10 µM) was -0.125 and the “probe-labelled cysteine peptide fold change” value (50 µM) was -0.217.

For “CPT2_P23786_535_HSAGELQQMMVECSK (UniProt P23786)”, the “probe-labelled cysteine peptide fold change” value is -0.179 (10 µM) and -0.0903 (50 µM).

In the case of “CPNE8_Q86YQ8_118_HDFLGQVFCTLGEIVGSQGSR (UniProt Q86YQ8)”, the “probe-labelled cysteine peptide fold change” value amounted to 0.211 (10 µM) and 0.228 (50 µM).

As for “CPD_O75976_1140_HLASLYANNHPSMHMGQPSCPNK (UniProt O75976)”, the “probe-labelled cysteine peptide fold change” value runs as follows: (10 µM) 0.117; (50 µM) -0.0674.

As to “CSTF1_Q05048_296_CITTFEK (UniProt Q05048)”, the “probe-labelled cysteine peptide fold change” value runs as follows: (10 µM) 0.116; (50 µM) 0.181.

The record behind these values is the supplement of paper PMC12067093, “Discovery and optimisation of a covalent ligand for TRIM25 and its application to targeted protein ubiquitination” (Chemical Science, 2025).
